Some results were stated once for a whole list of compounds, not compound by compound.
Assays:
[1] = tested on: HUVEC cells stimulated with FGF-2; assay: FGF-2-induced in vitro proliferation of HUVEC cells; type: cell-based, human; settings: for doses less than or equal to 300 nM
Protocol: To do this, HUVEC human vein endothelial cells (promocell, C-12200) are seeded at a rate of 5000 cells per well of a 96-well plate (Biocoat collagen I cellware, Becton Dickinson 354650) in 100 μl of RPMI 1640 deprivation medium (Invitrogen, 31872-025) supplemented with 0.5% or 1% FCS, 2 mM glutamine, 1× sodium pyruvate (Invitrogen; 11360-039) and 1×NEAA (Invitrogen, 11140-035), overnight at 37° C. in the presence of 5% CO2. The following morning, the medium is suctioned-off and replaced with 50 μl of deprivation medium containing the antagonists at a 2× concentration, to which are added 50 μl of FGF-2 (R&D systems, 133-FB-025; Invitrogen, PHG0026) at 0.2 ng/ml (i.e. 2×). After 48 or 72 h, 100 μl of Cell Titer-GLO™ Luminescent Cell Viability Assay (Promega, G7571) are added for 10 min in order to measure, by means of a luminometer, the amount of ATP present in the cells and which is in relation to the number of cells per well corresponding to the cell proliferation.
The antagonists of the present invention are considered to be active as long as they are capable of inhibiting FGF-2-induced proliferation of HUVEC cells at a dose less than or equal to 300 nM.

[2] = tested on: HUVEC cells stimulated with FGF-2; assay: FGF-2-induced in vitro angiogenesis of HUVEC cells; type: cell-based, human; settings: at a dose less than or equal to 300 nM
Protocol: To do this, matrices composed of matrigel (growth factor reduced matrigel, Becton Dickinson 356230) and collagen (rat tail collagen type I, Becton Dickinson 354236) are deposited, at a rate of 160 μl, into each chamberslide well (Biocoat Cellware collagen, Type I, 8-well culturesides: Becton Dickinson 354630), or 60 μl per well of 96-well plates (Biocoat collagen I cellware, Becton Dickinson 354407). The matrix is prepared by mixing ⅓ of matrigel, 1 mg/ml final concentration of collagen, 0.1N NaOH (0.026× the volume of collagen in μl) and 1×PBS, and the volume is then adjusted with water. The gels are kept at 37° C. for 1 hour so as to allow them to polymerize. […] After 24 hours, the length of the network of microtubules formed was measured using a computer-assisted image analysis system (Imagenia Biocom, Courtaboeuf, France) and the total length of the pseudotubules in each well was determined. The average total length of the microcapillary network was calculated in μm for each condition corresponding to the average of 6 replicates. […]
In this experiment, the molecules are evaluated at 3 and 30 nM on induction of the angiogenesis of HUVEC human cells by FGF-2.

Row | SMILES | reduction in FGF-2-induced proliferation [1] | inhibitory activity of pseudotubule formation [2]
1 | Cn1c(=O)n(Cc2ccc(F)cc2)c(=O)c2cc(C(=O)c3nc(-c4cccc(C(=O)[O-])c4)c4ccccn34)ccc21.[Na+] [Compound No. 49, Sodium Salt of 3-(3-{[3-(4-fluorobenzyl)-1-methyl-2,4-dioxo-1,2,3,4-tetrahydroquinazolin-6-yl]carbonyl}imidazo[1,5-a]pyridin-1-yl)benzoic acid] | greater than or equal to 20% | 
2 | CCCn1c(=O)n(Cc2ccc(F)cc2)c(=O)c2cc(C(=O)c3nc(-c4cccc(C(=O)[O-])c4)c4ccccn34)ccc21.[Na+] [Compound No. 72, Sodium Salt of 3-(3-{[3-(4-fluorobenzyl)-1-propyl-2,4-dioxo-1,2,3,4-tetrahydroquinazolin-6-yl]carbonyl}imidazo[1,5-a]pyridin-1-yl)benzoic acid] | greater than or equal to 20% | greater than or equal to 20%
